The whole screen tested about 330,000 compounds, of which about 1,000 (0.3%) were called active. Inconclusive means that the source gave no clear call. Such entries were picked first, then a sample of the others. Calls follow the shape of the dose curve; as a rule, active = well fitted inhibition curve with a large enough effect; inconclusive = small, poorly fitted or top-dose-only effect; inactive = no such curve, though single readings can be large or run the other way; tested in mouse RAW 264.7 cells. Where the call is inconclusive, the potency comes from a doubtful curve fit.
assay: qHTS for Inhibitors of Cell Surface uPA Generation; conditions: cell surface uPA generation assay; series mostly up to 38.3 µM; activity change, negative = inhibition: at the top concentration; also: nearly all actives have a fitted effect of over 55% in size
How it was run: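 RAW 264.7 cells (4000/well) were plated overnight at 37 C and then given compounds in a 1:5 series (up to 38.3 uM final) plus reagent for 24 h. Intracellular ATP was measured by ATP-Lite luminescence and stays elevated when uPA-dependent LF entry is blocked.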
% is scaled to controls: 0 for no effect and ±100 for the full control effect; potency is read from the fitted curve at half-maximal effect.

Row | Compound | activity change, negative = inhibition | Potency
1 | COc1ccc(NC(C)=O)cc1NC(=O)c1ccc(C#N)cc1 | inactive: 6.22% | –
2 | COc1ccc(C2CC(=O)c3cnc(N4CCN(Cc5ccccc5)CC4)nc3C2)cc1 (configuration not stated) | inactive: -0.831% | –
3 | O=C(N/N=C/c1ccccc1O)C1CC(=O)N(c2ccc(Cl)cc2)C1 (configuration not stated) | – | inconclusive: 8.91 µM [inhibitor, partial curve, poor fit]
4 | CCOC(=O)c1ccc(CC(=O)c2ccc(O)cc2O)o1 | inactive: 6.45% | –
5 | Cc1ccc(S(=O)(=O)NCc2ccc(C(=O)N3CCN(c4ccc([N+](=O)[O-])cc4)CC3)cc2)cc1 | – | inconclusive: 11.2 µM [inhibitor, single point]
6 | Nc1ccc(N=Nc2ccccc2)c2cccnc12 | – | inconclusive: 5.01 µM [inhibitor, partial curve, poor fit]
7 | O=C(N[C@@H]1C/C=C\C[C@H](CC(=O)N(CCO)Cc2ccccc2)C(=O)NC[C@@H](c2ccccc2)OC1=O)OCC1c2ccccc2-c2ccccc21 | – | inconclusive: 6.31 µM [inhibitor, single point]
8 | Cc1cc(C)c2nc(NC(=O)[C@@H](NC(=O)c3cccc(S(=O)(=O)N4CCOCC4)c3)C(C)C)sc2c1 | – | inconclusive: 28.2 µM [inhibitor, single point]
9 | O=C(/C=C/c1ccc([N+](=O)[O-])s1)N1CCCC1 | – | active: 11.2 µM
10 | CCCCSc1nc2ccc(Nc3nc(N4CCOCC4)nc(N4CCOCC4)n3)cc2s1 | inactive: 2.48% | –
11 | Cc1ccc(NCC(=O)N/N=C\c2ccc([N+](=O)[O-])o2)cc1 | – | inconclusive: 10 µM [inhibitor, partial curve, poor fit]
12 | Cc1cc2[nH]c3c4ccccc4nc(C)c3c2cc1C | – | active: 10 µM
13 | Nc1ccc(-c2nc3cc([N+](=O)[O-])ccc3o2)cc1 | – | inconclusive: 11.2 µM [inhibitor, single point]
14 | COc1ccc2c3n(nc2c1)CCN=C3c1cc(Cl)c(N)c(Cl)c1 | – | inconclusive: 12.6 µM [inhibitor, single point]
15 | COc1ccc(Cl)cc1NC(=O)CN(C)CC(=O)NCc1cccs1 | – | inconclusive: 1.12 µM [inhibitor, partial curve, poor fit]
16 | COC(=O)CNC(=O)C(Cc1ccccc1)NS(=O)(=O)c1ccc2c(c1)c(=O)n(C)c(=O)n2C (configuration not stated) | inactive: 18.4% | –
17 | COc1cccc(C=NNC(=O)c2ccncc2)c1O | inactive: -14.4% | –
18 | O=c1c(-c2ccco2)[n+]([O-])c2ccccc2n1OCc1ccccc1 | – | inconclusive: 2.82 µM [inhibitor, single point]
19 | Cc1cccc(-c2nc3ccccc3c(=O)n2NC(=S)N(C)C)c1 | inactive: 1.41% | –
20 | CC(=O)Oc1ccc(C2=NN(c3ccccc3)C(c3ccccc3)C2)cc1 (configuration not stated) | – | inconclusive: 5.01 µM [inhibitor, single point]
21 | COc1cccc(CN2CC(C(=O)NCc3ccc(C)o3)CCC2=O)c1 (configuration not stated) | – | inconclusive: 2 µM [inhibitor, full curve, poor fit]
22 | O=C(CSC(=S)N1CCOCC1)c1cc2ccccc2oc1=O | – | inconclusive: 12.6 µM [inhibitor, partial curve, poor fit]
23 | Cc1cccc(NC(=O)C(C)Sc2nc3ccccc3c(=O)n2CCCN2CCOCC2)c1 (configuration not stated) | – | inconclusive: 7.08 µM [inhibitor, partial curve, poor fit]

Row | Compound | activity change, negative = inhibition | Potency
24 | COC(=O)[C@@]12CCCCN1[C@H](c1ccc(-c3cccc(Cl)c3)c(OC)c1)[C@@H]1C(=O)N(C)C(=O)[C@@H]12 | – | inconclusive: 12.6 µM [inhibitor, single point]
25 | Cc1ccc(-c2cc(C(=O)N3CCc4ccccc4C3)[nH]n2)cc1C | inactive: -2.3% | –
26 | COc1ccccc1C(=O)Nc1nc2cc3c(cc2s1)OCCO3 | – | active: 2.82 µM
27 | COc1cc2nc(NC(=O)c3ccc(F)cc3Cl)sc(=O)c2cc1OC | – | inconclusive: 4.47 µM [inhibitor, partial curve, poor fit]
28 | Nc1ccc(Nc2ccccc2)cc1 | – | inconclusive: 7.94 µM [inhibitor, partial curve, poor fit]
29 | COc1ccc(CCNC(=O)[C@@H](NC(N)=O)C(C)C)cc1 | – | inconclusive: 0.0089 µM [inhibitor, full curve, poor fit]
30 | O=C(NCc1ccc(Cl)cc1)c1cccc(NC2=NC3CS(=O)(=O)CC3S2)c1 (configuration not stated) | – | inconclusive: 2.82 µM [inhibitor, single point]
31 | CCC(=O)Nc1nc(-c2ccc3c(c2)OCCO3)cs1 | – | inconclusive: 10 µM [inhibitor, single point]
32 | CCC1=C2CC[C@H]3C(=O)N(CC)C(=O)[C@H]3[C@H]2[C@@]2(Cc3ccccc3)C(=NCc3ccccc3)OC(=O)N2C1=O | – | inconclusive: 0.355 µM [inhibitor, full curve, poor fit]
33 | CN(C(=O)c1ccc(NC(=O)Cc2cccc(NC(=O)C3CCCN(C(=O)CCc4ccccc4)C3)c2)cc1)C1CC1 (configuration not stated) | – | inconclusive: 14.1 µM [inhibitor, single point]
34 | CC(Sc1ncnc2sc(-c3ccccc3)cc12)C(N)=O (configuration not stated) | inactive: -18% | –
35 | COc1ccc(-c2cc(=O)c3cc(OC)ccc3o2)cc1 | – | active: 1.41 µM
36 | CC(=O)Nc1ccc(S(=O)(=O)Nc2cccc(-c3nc4cc(C)ccc4o3)c2)cc1 | – | inconclusive: 12.6 µM [inhibitor, partial curve, poor fit]
37 | CCOC(=O)c1ccc(S(=O)(=O)NC2CCC(C)CC2)cc1 (configuration not stated) | – | inconclusive: 1.78 µM [inhibitor, partial curve, poor fit]
38 | CCOc1cc(NC(=S)NCCCN2CCOCC2)c(OCC)cc1NC(=O)c1ccccc1C | – | inconclusive: 1.26 µM [inhibitor, single point]
39 | Cn1nnnc1Sc1ncnc2scc(-c3ccc(Br)cc3)c12 | – | inconclusive: 0.891 µM [inhibitor, partial curve, poor fit]
40 | COc1ccc2oc(C(=O)Nc3ccc(S(=O)(=O)N(C)C4CCN(C)CC4)cc3)c(C)c2c1 | – | inconclusive: 28.2 µM [inhibitor, single point]
41 | CCOc1ccccc1NC(=O)c1nc(S(=O)(=O)Cc2ccccc2)ncc1Cl | – | active: 3.16 µM
42 | CCCCC(=O)Nc1nnn(CCC)n1 | – | inconclusive: 12.6 µM [inhibitor, single point]
43 | CCCCCc1cc(=O)oc2c(C(CCN3CCN(c4ccccc4)CC3)c3ccc(N(C)C)cc3)c(OC)cc(OC)c12 (configuration not stated) | inactive: -7.65% | –
44 | O=C(c1ccc(S(=O)(=O)NCC2CCCO2)cc1)N1CCN(c2cccc(Cl)c2)CC1 (configuration not stated) | – | inconclusive: 11.2 µM [inhibitor, single point]
45 | C[C@@]12C(=O)Nc3ccccc3C(=O)N1[C@H]1c3cc(Br)ccc3OC[C@@H]1[C@@H]2c1ccccc1 | – | inconclusive: 11.2 µM [inhibitor, single point]
46 | COc1ccccc1-c1nc(-c2ccc(Br)o2)no1 | inactive: -23.3% | –

Records 39 through 44, reprinted for reference:
Row | Compound | activity change, negative = inhibition | Potency
39 | Cn1nnnc1Sc1ncnc2scc(-c3ccc(Br)cc3)c12 | – | inconclusive: 0.891 µM [inhibitor, partial curve, poor fit]
40 | COc1ccc2oc(C(=O)Nc3ccc(S(=O)(=O)N(C)C4CCN(C)CC4)cc3)c(C)c2c1 | – | inconclusive: 28.2 µM [inhibitor, single point]
41 | CCOc1ccccc1NC(=O)c1nc(S(=O)(=O)Cc2ccccc2)ncc1Cl | – | active: 3.16 µM
42 | CCCCC(=O)Nc1nnn(CCC)n1 | – | inconclusive: 12.6 µM [inhibitor, single point]
43 | CCCCCc1cc(=O)oc2c(C(CCN3CCN(c4ccccc4)CC3)c3ccc(N(C)C)cc3)c(OC)cc(OC)c12 (configuration not stated) | inactive: -7.65% | –
44 | O=C(c1ccc(S(=O)(=O)NCC2CCCO2)cc1)N1CCN(c2cccc(Cl)c2)CC1 (configuration not stated) | – | inconclusive: 11.2 µM [inhibitor, single point]

(list continues)

Row | Compound | activity change, negative = inhibition | Potency
47 | COc1cc(-c2noc(C)c2C#Cc2ccccn2)cc(OC)c1OC | – | active: 0.355 µM
48 | C/C(CCCO)=N/Nc1ccc([N+](=O)[O-])cc1[N+](=O)[O-] | – | inconclusive: 7.08 µM [inhibitor, partial curve, poor fit]
49 | CCCCCn1c(CN2CCN(c3cccc(Cl)c3)CC2)nc2c1c(=O)[nH]c(=O)n2C | – | inconclusive: 11.2 µM [inhibitor, partial curve, poor fit]
50 | Cc1ccc([N+](=O)[O-])cc1N=C1C(=O)Nc2ccccc21 | inactive: -2.07% | –
51 | O=C(NCCOc1ccccc1F)c1cccc(S(=O)(=O)N2CCN(c3ccccc3)CC2)c1 | inactive: -1.41% | –
52 | O=[N+]([O-])c1cccc(C=NN2CCCCCC2)c1 | inactive: 0.54% | –
53 | CCOC(=O)c1c(Nc2ccccc2)sc(/C=C2\C=Nc3ccccc32)c1O | inactive: -4.92% | –
54 | Cc1c(C(=O)NNC(=S)Nc2cccc(Cl)c2)nnn1-c1ccccc1 | inactive: -2.15% | –
55 | Cc1ccc(S(=O)(=O)Nc2ncnc3sc(C)c(C)c23)cc1 | inactive: -0.353% | –
56 | Oc1ccccc1Oc1ncc(Br)c(Cl)n1 | – | inconclusive: 5.01 µM [inhibitor, single point]
57 | CCc1nc(NCCC(C)C)c2nnn(Cc3ccccc3)c2n1 | – | inconclusive: 7.08 µM [inhibitor, partial curve]
58 | CCOc1cc(C(=S)N2CCOCC2)ccc1OC(=O)c1ccccc1 | – | inconclusive: 8.91 µM [inhibitor, partial curve, poor fit]
59 | CCOC(=O)/C(C#N)=C/C1=C(N2CCCC2)CC(C)(CC)OC1 (configuration not stated) | inactive: 0.289% | –
60 | CCOC(=O)C1CCN(C(=O)c2cc(S(=O)(=O)N3CCCCC3)ccc2C)CC1 | – | inconclusive: 2.82 µM [inhibitor, partial curve, poor fit]
61 | Cc1ccc2c(CC(=O)Nc3ccc(F)c(S(=O)(=O)N4CCOCC4)c3)coc2c1 | – | inconclusive: 0.794 µM [inhibitor, partial curve, poor fit]
62 | CN(CC1CCCO1)S(=O)(=O)c1ccc(C(=O)Nc2nnc(-c3ccccc3)o2)cc1 (configuration not stated) | – | inconclusive: 3.16 µM [inhibitor, partial curve]
63 | CCN(CC)S(=O)(=O)c1ccc(C(=O)Nc2nnc(NC(=S)Nc3ccccc3)s2)cc1 | inactive: -4.16% | –
64 | O=C(NCCO)c1ccc2c3n(nc2c1)-c1ccccc1CO3 | – | active: 2.82 µM
65 | C(=N\Nc1nc2ccccc2[nH]1)/c1ccccn1 | – | inconclusive: 2.82 µM [inhibitor, full curve, poor fit]
66 | CC(C)c1onc(C(=O)N2CCN(C(c3ccccc3)c3ccccc3)CC2)c1[N+](=O)[O-] | – | active: 3.16 µM
67 | Cc1nn(-c2ccccc2)c(C)c1/C=N/NC(=O)c1cc(-c2cccs2)[nH]n1 | – | inconclusive: 0.316 µM [inhibitor, full curve, poor fit]

— PubChem BioAssay AID540303 (National Center for Advancing Translational Sciences (NCATS), 2011)
